Laboratory results published in article PMC6045555.

Target: HSP16.6 carrying a Strep-tag II affinity tag on the C-terminus (Synechocystis sp. PCC 6803)
Assay: affinity purification with mass spectrometry; HSP16.6-Strep held on Strep-Tactin resin (4 °C, 2 h) from the soluble fraction of Synechocystis cells treated at 42 °C 2 h, 1 h recovery at 30 °C, then 30 min at 46 °C; lysis buffer 25 mM HEPES-KOH, 0.2 M NaCl, 0.5% Triton X-100, 1 mM EDTA, pH 7.5; six washes; spots or bands unique to the heat-stressed sample cut from 1D or 2D gels and identified by LC-MS/MS

Binder	binding
GTP-binding protein TypA/BipA homolog (protein, UniProt P72749 1-597) MSLPIRNVAIIAHVDHGKTTLVDALLKQSGIFREGEDVPVCVMDSNDLERERGITILSKNTAVRYQDTLINIVDTPGHADFGGEVERVLGMVDGCVLIVDANEGPMPQTRFVLKKALEKGLRPLVVVNKIDRPRADPNTAVDKVFDLFVELGADDDQCDFTTLFASGLGGFAKESLDDDSEDMKPLFEAILHHVPPPAGDPNKPLQLQVTTLDYSDYLGRIIIGRIHNGTVKAGQQAALVKEDGSIAKGKVSKLLGFEGLNRIELPEASAGYIVAIAGFADANIGETLTCPDEPQALPLIKVDEPTLQMTFSVNDSPFAGQEGKFVTSRQIRDRLNRELETNVALRVEDGESAEQFLVSGRGELHLGILIETMRREGYEFQVAQPQVIYREVNGQPCEPVEYLVLDVPEAAVGACIERLGQRRGEMQDMQTSVNGRTQLEFVIPARGLLGFRGDFIRITRGEGIMNHSFLEYRPMSGDLETRYNGVMVAFEEGVATFYAMKNAEDRGVFFITPGTKVYKGMIIGEHNRPQDIELNVCKTKQLTNHRSATGDELVQLQAPEDMNLERALEYIGPDELVEITPESIRLRKVARKKLVKR	binds
60 kDa chaperonin 1 (protein, UniProt Q05972 1-541) MAKSIIYNDEARRALERGMDILAEAVAVTLGPKGRNVVLEKKFGSPQIINDGITIAKEIELEDHVENTGVSLIRQAASKTNDVAGDGTTTATVLAHAIVKEGLRNVAAGANPISLKRGIDKATDFLVARIKEHAQPVGDSKAIAQVGAISAGNDEEVGQMIANAMDKVGQEGVISLEEGKSMTTELEITEGMRFDKGYISPYFVTDAERMEAVLEDPRILITDKKINLVQDLVPILEQVARQGKPLLIIAEDIEKEALATLVVNRLRGVLNVAAVKAPGFGDRRKQMLEDIATLTGGQVISEDAGLKLESATVDSLGSARRINITKDNTTIVAEGNEAAVKSRCEQIRRQIEETDSSYDKEKLQERLAKLAGGVAVIKVGAATETEMKDRKLRLEDAINATKAAVEEGIVPGGGTTLAHLAPQLEDWATGNLKDEELTGALIVARALPAPLKRIAENAGQNGAVISERVKEKEFNVGYNAASLEYVDMLAAGIVDPAKVTRSALQNAASIAGMVLTTECIVVDKPEKEKAPAGAPGGDFDY	binds
DnaK 3 (protein, UniProt P73098 1-771) MGKVVGIDLGTTNSVVAVMEGGKPIVIANAEGMRTTPSVVGFNKEGELVVGQMGRRQAVLNPQNTFYGVKRFMGRRYTDLTPESKRVAYTIRRDDRDNIKVRCPRLKKDFAPEEISAMILRKLAEEASRYLGEKVTGAVITVPAYFNDSQRQATRDAGKIAGLEVLRIINEPTAASLAYGLDQGRIQKILVFDLGGGTFDVSVLEVGDGIFEVKATSGDTQLGGNDFDRRIVDWLAEKFLEAEKVDLRQDRQALQRLTEAAEKAKIELSGVGTTEINLPFITATEDGPKHLETQLSRSEFEDLCGDLVTRLQRPVKRVLKDAGLSPVQIDEVVLVGGGTRMPMVKGLVRSFIDREPNENVNPDEVVAIGAAIQAGILDGEVKDILLLDVTPLSFGLETIGGVMKKLLPRNTTIPVRKSDIFSTGENNQTVVEVHVLQGEREMASDNISLGRFKLSGIPPAPRGVPQVQVSFDIDANGILQVTARDKTTGREQSITVQGASILSEGEVNRMIQEAETFAAQDRERRERIEKRNSAKALTDQAQRRLKEVTLDFGSAFTVSYRRQVDALCSEILDSLEKDDERRLDRAQADLQDVLYELNREVRLQYDDKEEGFFEAIKKTFTGDFDDDDDYYNRRPAPRDDYRGGNDYGRYDDYNYNAPSRREAPMPRAGAGRGPSLSKDYRSTAYADWDQSRVTRQRPYQGESLGGTYDDRRSSPQDDYSRGDRQKDYDYRENAPSRSGRGGNGRYGERPAQPGRNAPLQNGWDDDDDDWF	binds
Trigger factor (TF) (protein, UniProt Q55511 1-471) MKVTQEKLPDSQVGLEIEIPATASKKVYENVVKKLTRTVNIPGFRRGKVPRAIVIQRLGQSYIKATAIEELIDDSIKAAVKQEELPIIGNFSLRSDMENLIQIFDPEAPLTIKVAADVFPEAEYEPESYKKITAQAEEIEYSADAVDQWLKGEQEKRATLVPVEDRPAALGDLAIVDYAAFQVAEDGQAGEAIAEVKGSDFEVTLEDGRFVAGIVDGIVGMAVDETKLIPVTFPEDYPLEAVAGEDVLFEIKLKEIKFRELPELDDDFAEDVSEFETMAELKADLEKQFQEQAKQRTDDNIKAAIKKKLGELFTGDLPETMIKQECDRLVAQTAMELERMGLDVSQLFRQGDDMLQTLKDNSRPEAIANLKTDLMIGAIAKEEKIQPTEAEVKERCDELRQEFKGEKIDESRLVNFVESSLTESKVLDLLKEWADVELLPEGSLSQTEEDTPDDDAEEEAIVDVEATSDEE	binds
Peptidyl-prolyl cis-trans isomerase (enzyme, UniProt P73789 1-171) MMSKVFFDITIGSDTAGRIVMELFDEVTPKTAENFRALCTGEKGVGKAGKPLHFKGSHFHRVITDFMAQGGDFTRGNGTGGESIYGEKFADENFQLKHDRPGLLSMANAGPNTNGSQFFLTFVPCPWLDGKHVVFGEVVEGLEILEQLEANGSQSGQTKQAIVISDCGEIK	binds
RNA polymerase alpha subunit (protein, UniProt P73297 1-314) MAQFQIECVESSTRKNQQQYSKFSLEPLDRGQGTTVGNALRRVLLSNLPGAAVTAIRIAGVNHEFATILGVREDVLEIMLNMKELVLKSYTDQPQIGRLTAIGPGTVTAAQFEVPSEVEVIDPNQYIATLAEGAKLEMEFRVERGVGYRVIERGKDENSSLDFLQIDSVFMPVTKVNYTVEDIRADGMSPKDRLILDIWTNGSIQPREALSEASDIIANLFIPLKDLNELEAAHSDYQDEVNPESQIPIEELQLSVRAYNCLKRAQINSVADLLEYSQEDLLEIKNFGLKSAEEVIEALQKRLGITLPHEKAKA	binds
Fructose-bisphosphate aldolase, class II (enzyme, UniProt Q55664 1-359) MALVPMRLLLDHAAENGYGIPAFNVNNMEQIISIMQAADETDSPVILQASRGARSYAGENFLRHLVLGAVETYPHIPIAMHQDHGNSPATCYSAIRNGFTSVMMDGSLEADAKTPASFEYNVNVTAEVVKVAHSVGASVEGELGCLGSLETGQGEAEDGHGFEGKLDHSQLLTDPEEAVEFVNKTQVDALAVAIGTSHGAYKFTRKPTGEVLAISRIEEIHRLLPNTHLVMHGSSSVPQEWIDMINEFGGAIPETYGVPVEEIQKGIKSGVRKVNIDTDNRLAITAAFREAAAKDPKNFDPRHFLKPSIKYMKQVCADRYQQFWTAGNASKIKQLTLDDYAAKYAKGELTATSRTSVAV	binds
RNA polymerase beta subunit (protein, UniProt P77965 1-1102) MTNLATTMLPDLIEIQHASFHWFLEEGLIEELNSFSPISDYTGKLELHFLGKDYKLKQPKYDVDESKRRDASYSVQMYVPTRLINKETGEIKEQEVFIGDLPLMTERGTFIINGAERVIVNQIVRSPGVYYKKELDKNGRRTYSASLIPNRGAWLKFETDKNGLVYVRIDKTRKLSAQVLLKAIGLSDNEILDSLSHPEFYQKTLDKEGNPTEEEALVELYKKLRPGEPPTVSGGQQLLESRFFDPKRYDLGRVGRYKLNKKLRLNEADTTRVLTPQDILAAINYLINLEFDVGTTDDIDHLGNRRVRSVGELLQNQIRVGLNRLERIIRERMTVSESDALTPASLVNPKPLVAAIKEFFGSSQLSQFMDQTNPLAELTHKRRISALGPGGLTRERAGFAVRDIHPSHHGRICPVETPEGPNAGLIGSLATCARVNDYGFIETPYFRVESGRVRKDLDPVYLTADEEDDMRVAPGDIPTDEEGNIIGESVPIRYRQEFSTTSPEQVDYVAVSPVQIISVATSMIPFLEHDDANRALMGSNMQRQAVPLLRPERPLVGTGLEAQAARDSGMVIVSRTHGIVTYVDATEIRVQPHSPDNPAEKGEEIVYPIQKYQRSNQDTCLNQRPLVYAGEDVVPGQVLADGSATEGGELALGQNILVAYMPWEGYNYEDAILISERLVYDDVYTSIHIEKFEIEARQTKLGPEEITREIPNVGEDALRNLDEHGIIRIGAWVESGDILVGKVTPKGEADQPPEEKLLRAIFGEKARDVRDNSLRVPNGEKGRVVDVRVFTREKGDELPPGANMVVRIYVAQKRKIQVGDKMAGRHGNKGIISRILPIEDMPYLPDGRPIDIALNPLGVPSRMNVGQVFECLLGWAGENLGVRFKITPFDEMYGEEASRDTVHGLLEEASQRPNKDWVFNENHPGKIQVFDGRTGEPFDRPITVGQAYMLKLVHLVDDKIHARSTGPYSLVTQQPLGGKAQQGGQRFGEMEVWALEAYGAAYILQELLTVKSDDMQGRNEALNAIVKGKSIPRPGTPESFKVLMRELQSLGLDIAAHKVQLSEDGESADAEVDLMIDSQRRAPNRPTYESLHTEEDLEEEEV	binds
ATP-dependent protease ClpP (enzyme, UniProt P54416 1-198) MIPTVIETSGRGDRAFDIYSRLLRERIVFLGQEVRDENANLVVAQLLFLEAEDPEKDIYLYINSPGGSVSAGLGIFDTMNQIRPDVCTICIGLAASMGAFLLSAGAKGKRMSLPNSRIMIHQPLGGAQGQATDIEIQAKEILYLKALLNQHLANHTGKSLEEITADTERDFFMSAEESKEYGLIDQVINRRPSASDPI	binds

These are yes or no findings as the source states them, for the method shown. Binding seen in cells or lysates may run through a third protein. A yes stands for co-enrichment or nearness to the bait. Other partners may have been found.
